According to patent publication US11052151B2, “Diagnosis and treatment of autism spectrum disorder” (California Institute of Technology, priority 2012, dated 2021):
Structures can show the parent of a compound that is named as a salt. Residues, ends and D or L forms follow the SMILES beside them.

Experiment: Metabolomics screening (GC/LC-MS) of sera, poly(I:C) (MIA) versus saline offspring
Format: in vivo, mice
Details: 10-week old offspring of poly(I:C)-injected mothers versus controls, p < 0.10

Molecule	Fold Change of serum metabolite
CCCCCCCC/C=C\CCCCCCCC(=O)OCC(O)COP(=O)(O)OCCN (stereo not shown) [1-oleoylglycerophosphoethanolamine]	0.7
C=C(OP(=O)(O)O)C(=O)O [phosphoenolpyruvate]	0.56
CCCCC/C=C\C/C=C\C/C=C\C/C=C\C/C=C\CCC(=O)O [docosapentaenoate (n6 DPA; 22:5n6)]	0.83
CC12N=CN([C@@H]3O[C@H](CO)[C@@H](O)[C@H]3S)C1=NC=NC2=N (stereo partly shown) [5-methylthioadenosine]	1.34
O[C@H]1[C@H](O)[C@@H](O)[C@H](O)[C@@H](O)[C@H]1O [myo-inositol]	0.86
CC/C=C\C/C=C\C/C=C\C/C=C\C/C=C\C/C=C\CCC(=O)O [docosahexaenoate (DHA; 22:6n3)]	0.8
CCCCCC/C=C\CCCCCCCC(=O)OCC(O)COP(=O)([O-])OCC[N+](C)(C)C (stereo not shown) [1-palmitoleoylglycerophosphocholine]	1.49
CCCCC/C=C\C[C@H](O)/C=C/C=C\C/C=C\CCCC(=O)O [12-HETE]	0.69
N[C@@H](CS)C(=O)O [cysteine]	0.73
CC(=O)N[C@@H](CO)C(=O)O [N-acetylserine]	0.73
CCC(C)C(=O)C(=O)O (stereo not shown) [3-methyl-2-oxovalerate]	0.75
O=C[C@H](O)[C@@H](O)[C@H](O)CO [xylose]	1.34
NCCc1c[nH]c2ccc(O)cc12 [serotonin]	1.15
O=C(O)CCCCCCCCCCCCCCCCC(=O)O [octadecanedioate]	0.83
CCCCC/C=C\C/C=C\C/C=C\C/C=C\CCCCCC(=O)O [adrenate]	0.82
O=C[C@H](O)[C@H](O)[C@H](O)CO [ribose]	1.44
O=C(O)CNC(=O)Cc1ccccc1 [phenylacetylglycine]	0.71
N=C(N)NCCC[C@H](N)C(=O)O [arginine]	0.87
CCCCCCCCCCCCCCCC(=O)OCC(O)COP(=O)(O)OCCN (stereo not shown) [1-palmitoylglycerophosphoethanolamine]	0.81
C[N+](C)(C)[C@@H](Cc1c[nH]c(=S)[nH]1)C(=O)[O-] [ergothioneine]	0.72
NC(=O)CC[C@H](N)C(=O)O [glutamine]	1.2

Molecule	Fold Change of serum metabolite
CCCCCCCCCCCCCCC(=O)OCC(O)COP(=O)([O-])OCC[N+](C)(C)C (stereo not shown) [1-pentadecanoylglycerophosphocholine]	1.43
O=C(O)C(=O)Cc1c[nH]c2ccccc12 [indolepyruvate]	1.57
C=CC1=C(C)/C(=C/c2[nH]c(Cc3[nH]c(/C=C4\NC(=O)C(C)=C4C=C)c(C)c3CCC(=O)O)c(CCC(=O)O)c2C)NC1=O [bilirubin (E,E)]	2.68
CCCCC/C=C\C/C=C\CCCCCCCCCC(=O)O [dihomo-linoleate (20:2n6)]	0.79
O=C(O)CCc1cnc[nH]1 [imidazole propionate]	1.35
O=C(O)[C@H](O)COP(=O)(O)O [3-phosphoglycerate]	0.51
CCCCCCCCCCCCCCCCCC(=O)OC[C@@H](O)COP(=O)(O)OC1[C@H](O)[C@H](O)C(O)[C@H](O)[C@H]1O (stereo partly shown) [1-stearoylglycerophosphoinositol]	0.64
O=C(O)/C=C/c1cnc[nH]1 [transurocanate]	1.71
eicosenoate	0.61
equol sulfate	0.78
O=S(=O)(O)Oc1ccccc1 [phenol sulfate]	0.68
NCCC(=O)O [beta-alanine]	0.46
13-HODE+9-HODE	0.72
TDTEDKGEFLSEGGGVR (ASD-related metabolite)	1.8
CCc1ccc(OS(=O)(=O)[O-])cc1.[K+] [4-ethylphenylsulfate]	46.39
1-palmitoylplasmenylethanolamine	0.73
CC(C)[C@H](NC(=O)CN)C(=O)O [glycylvaline] (H-Gly-Val-OH)	0.48
O=C(O)CO [glycolate (hydroxyacetate)]	1.17
CC(C)CC(=O)C(=O)O [4-methyl-2-oxopentaoate, 4-methyl-2-oxopentanoate]	0.7
CC/C=C\C/C=C\C/C=C\C/C=C\C/C=C\CCCCCC(=O)O [docosapentaenoate (n3 DPA; 22:5n3)]	0.75

Experiment: Metabolomics screening (GC/LC-MS) of sera after B. fragilis treatment of MIA offspring
Format: in vivo, mice
Details: poly(I:C)+B. fragilis offspring relative to saline controls, p<0.05

Molecule	I:C-Bfrag / CON (fold change of serum metabolite)
O=C(O)c1ccccc1O [salicylate]	0.68
pimelate (heptanedioate)	0.61
O=C(O)CCCCCCCO [8-hydroxyoctanoate]	0.72
NCCc1c[nH]c2ccc(O)cc12 [serotonin]	1.26
azelate (nonanedioate)	0.72
N=C(N)NCCC[C@H](N)C(=O)O [arginine]	0.86
O=C(O)CCCCCCCCCCCCCCCO [16-hydroxypalmitate]	0.70
3-phenylpropionate (hydrocinnamate)	0.60
sebacate (decanedioate)	0.64
sarcosine (N-Methylglycine)	0.64
glutarate (pentanedioate)	0.78
